Assay results from PubChem BioAssay AID256 (DTP/NCI, 2004).
The list is a part of this screen's results and no random one: it is rich in T/C values a quarter to a half above the control, in often repeated tests (any T/C) and in doses without a T/C. Further doses and runs are listed elsewhere. T/C gives the treated animals as a percentage of the vehicle group. Some entries give survivors of the animals treated and no T/C: the source files T/C as zero there, which appears to mark a toxic dose or a test without result, not a measured value. Some doses without a T/C left all or most animals alive at the check, yet need not have been tolerated: the source hardly ever lists a survival T/C far under the control, and the zero likely stands for such cases as well. Survivors were counted at the toxicity check, usually on the fifth day, unless a day is given; later deaths do not show. Schedule codes are those of the source, read here as Q, the interval in days (D) or hours (H), X, the number of doses. Some entries were tested several times; their values stand side by side, smallest first. Where survival is the endpoint, the PubChem record calls one and a half times the control and up active, and a quarter to a half above the control has no call in these data; cut-offs in other NCI protocols can differ. Marks such as (2×) count equal records among those shown. Some T/C values are followed by the survivors on the day toxicity was checked, most often the fifth; without a count, all were alive then.

Test system: CD2F1 mice, L1210 leukemia ip, survival T/C
Assay: NCI In Vivo Anticancer Drug Screen. Data for tumor model L1210 Leukemia (intraperitoneal) in CD2F1 (CDF1) mice
Details: higher T/C = longer survival
In short: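 Mice carrying a transplanted tumor received test compound or vehicle alone. The value is the measurement in the treated group divided by that in the vehicle-treated control group.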

[1] = T/C endpoint: mean survival time, dose: 200.0 mg/kg/injection, schedule: Q04DX003 (ip), vehicle: saline with Tween-80
[2] = T/C endpoint: mean survival time, dose: 400.0 mg/kg/injection, schedule: Q04DX003 (ip), vehicle: saline with Tween-80
[3] = T/C endpoint: mean survival time, dose: 200.0 mg/kg/injection, schedule: Q04DX003 (ip), vehicle: saline
[4] = T/C endpoint: mean survival time, dose: 400.0 mg/kg/injection, schedule: Q01DX009 (ip), vehicle: saline with Tween-80
[5] = T/C endpoint: mean survival time, dose: 400.0 mg/kg/injection, schedule: Q04DX003 (ip), vehicle: saline
[6] = T/C endpoint: mean survival time, dose: 50.0 mg/kg/injection, schedule: Q01DX009 (ip), vehicle: saline

## COc1cc(C)c(O)c(C[P+](c2ccccc2)(c2ccccc2)c2ccccc2)c1
T/C endpoint: mean survival time, dose: 100.0 mg/kg/injection, schedule: Q01DX009 (ip), vehicle: saline with Tween-80
  survivor count: 0 of 6
[1]
  survivor count: 0 of 6 and 1 of 6
[2]
  survivor count: 0 of 6

## O=C1[O][Sb]23[O]C(=O)C([O]2)C(O)C(O)C2[O][Sb]4([O]C(=O)C([O]4)C(O)C(O)C1[O]3)[O]C2=O (centres undefined)
[3]
  survivor count: 4 of 6
T/C endpoint: mean survival time, dose: 400.0 mg/kg/injection, schedule: Q01DX001 (ip), vehicle: saline
  survivor count: 3 of 6

## CC(CN1CC(=O)NC(=O)C1)N1CC(=O)NC(=O)C1 (centres undefined)
T/C endpoint: mean survival time, dose: 16.0 mg/kg/injection, schedule: Q01DX009 (ip), vehicle: saline
  T/C: 136 % of control
T/C endpoint: mean survival time, dose: 50.0 mg/kg/injection, schedule: Q04DX003 (ip), vehicle: saline with Tween-80
  T/C: 110 (2×), 111, 112, 113 (2×), 124, 128 % of control
T/C endpoint: mean survival time, dose: 64.0 mg/kg/injection, schedule: Q04DX003 (ip), vehicle: saline
  T/C: 131 % of control
T/C endpoint: mean survival time, dose: 100.0 mg/kg/injection, schedule: Q01DX001 (ip), vehicle: saline, evaluated on day 5
  T/C: 99 and 120 % of control
T/C endpoint: mean survival time, dose: 100.0 mg/kg/injection, schedule: Q01DX001 (ip), vehicle: saline, evaluated on day 30
  T/C: 120 % of control
T/C endpoint: mean survival time, dose: 100.0 mg/kg/injection, schedule: Q01DX001 (ip), vehicle: saline, evaluated on day 60
  T/C: 99 % of control
T/C endpoint: mean survival time, dose: 100.0 mg/kg/injection, schedule: Q04DX003 (ip), vehicle: saline with Tween-80
  T/C: 108, 110, 117, 120, 130, 131, 148, 151 % of control
T/C endpoint: mean survival time, dose: 128.0 mg/kg/injection, schedule: Q04DX003 (ip), vehicle: saline
  T/C: 147 % of control
T/C endpoint: mean survival time, dose: 200.0 mg/kg/injection, schedule: Q01DX001 (ip), vehicle: saline, evaluated on day 5
  T/C: 130 and 133 % of control
T/C endpoint: mean survival time, dose: 200.0 mg/kg/injection, schedule: Q01DX001 (ip), vehicle: saline, evaluated on day 30
  T/C: 130 % of control
T/C endpoint: mean survival time, dose: 200.0 mg/kg/injection, schedule: Q01DX001 (ip), vehicle: saline, evaluated on day 60
  T/C: 133 % of control
[1]
  T/C: 107, 129, 148, 177, 183, 193, 203, 209 % of control
T/C endpoint: mean survival time, dose: 256.0 mg/kg/injection, schedule: Q01DX009 (ip), vehicle: saline
  survivor count: 10 of 10
T/C endpoint: mean survival time, dose: 400.0 mg/kg/injection, schedule: Q01DX001 (ip), vehicle: saline, evaluated on day 5
  T/C: 145 and 156 % of control
T/C endpoint: mean survival time, dose: 400.0 mg/kg/injection, schedule: Q01DX001 (ip), vehicle: saline, evaluated on day 30
  T/C: 156 % of control
T/C endpoint: mean survival time, dose: 400.0 mg/kg/injection, schedule: Q01DX001 (ip), vehicle: saline, evaluated on day 60
  T/C: 145 % of control
[2]
  T/C: 90, 120, 134, 143, 201, 214, 222, 253 % of control
T/C endpoint: mean survival time, dose: 1024.0 mg/kg/injection, schedule: Q04DX003 (ip), vehicle: saline
  survivor count: 6 of 10
T/C endpoint: median survival time, dose: 108.0 mg/kg/injection, schedule: Q04DX003 (ip), vehicle: Klucel (hydroxypropylcellulose) (HPC), evaluated on day 5
  T/C: 147 % of control
T/C endpoint: median survival time, dose: 108.0 mg/kg/injection, schedule: Q04DX003 (ip), vehicle: Klucel (hydroxypropylcellulose) (HPC), evaluated on day 61
  T/C: 147 % of control

## CCOC(=O)CNC(=O)Sc1ccc(C(C)(C)C)cc1
T/C endpoint: mean survival time, dose: 400.0 mg/kg/injection, schedule: Q01DX009 (ip), vehicle: Klucel (hydroxypropylcellulose) (HPC)
  survivor count: 3 of 6

## CC(=O)Oc1ccc[nH]c1=O
T/C endpoint: mean survival time, dose: 300.0 mg/kg/injection, schedule: Q01DX009 (ip), vehicle: saline
  T/C: 142 and 143 % of control
T/C endpoint: mean survival time, dose: 500.0 mg/kg/injection, schedule: Q01DX009 (ip), vehicle: saline
  T/C: 129 [5 of 6 alive] and 144 % of control
T/C endpoint: median survival time, dose: 266.0 mg/kg/injection, schedule: Q03HX027 (ip), vehicle: saline with Tween-80
  T/C: 129 and 136 % of control
T/C endpoint: median survival time, dose: 400.0 mg/kg/injection, schedule: Q01DX009 (ip), vehicle: saline with Tween-80
  T/C: 125, 137, 144 % of control
T/C endpoint: median survival time, dose: 532.0 mg/kg/injection, schedule: Q03HX027 (ip), vehicle: saline with Tween-80
  survivor count: 0 of 6
T/C endpoint: median survival time, dose: 800.0 mg/kg/injection, schedule: Q01DX009 (ip), vehicle: saline with Tween-80
  survivor count: 2 of 6 and 3 of 6

## CCNc1nc(NCC)nc(OC)n1
[2]
  survivor count: 3 of 6

## CCOC(=O)c1ccc(Nc2nnc(-c3ccc(OC)cc3OC)s2)cc1
T/C endpoint: mean survival time, dose: 200.0 mg/kg/injection, schedule: Q01DX009 (ip), vehicle: saline with Tween-80
  survivor count: 3 of 3
[4]
  survivor count: 3 of 3

## O=[N+]([O-])c1cc(Cl)c(Cl)cc1Cl
[4]
  survivor count: 0 of 6

## CC(NC(=O)OCc1ccccc1)C(=O)NC(CC(=O)O)C(=O)O (centres undefined)
[3]
  survivor count: 0 of 6
[5]
  survivor count: 0 of 6

## COc1ccc(NC(=O)Nc2ccccc2C)c(OC)c1
T/C endpoint: mean survival time, dose: 100.0 mg/kg/injection, schedule: Q04DX002 (ip), vehicle: saline with Tween-80
  survivor count: 3 of 3

## O=C(O)c1ccc(Cl)cc1Nc1ccc(O)cc1
T/C endpoint: mean survival time, dose: 200.0 mg/kg/injection, schedule: Q04DX002 (ip), vehicle: saline with Tween-80
  survivor count: 0 of 3
T/C endpoint: mean survival time, dose: 400.0 mg/kg/injection, schedule: Q04DX002 (ip), vehicle: saline with Tween-80
  survivor count: 0 of 3

## CCn1cnc2c(SC3CCCC3)ncnc21
T/C endpoint: mean survival time, dose: 800.0 mg/kg/injection, schedule: Q01DX001 (ip), vehicle: carboxymethylcellulose (CMC)
  T/C: 137 % of control [5 of 6 alive]

## CC1(C)N=C(N)N=C(N)N1c1cc(Cl)cc(CCNC(=O)Nc2ccc(S(=O)(=O)F)cc2)c1
T/C endpoint: mean survival time, dose: 200.0 mg/kg/injection, schedule: Q01DX001 (ip), vehicle: saline with Tween-80
  survivor count: 0 of 6
T/C endpoint: mean survival time, dose: 400.0 mg/kg/injection, schedule: Q01DX001 (ip), vehicle: saline with Tween-80
  survivor count: 0 of 6

## CC(=O)N(C)c1ccc(Nc2cc(C)[nH]c3ccc4ncnc4c23)cc1
T/C endpoint: mean survival time, dose: 12.5 mg/kg/injection, schedule: Q01DX009 (ip), vehicle: saline
  T/C: 125 % of control
T/C endpoint: mean survival time, dose: 25.0 mg/kg/injection, schedule: Q01DX009 (ip), vehicle: saline
  T/C: 129 % of control
[6]
  T/C: 143 % of control
  survivor count: 7 of 10
T/C endpoint: mean survival time, dose: 100.0 mg/kg/injection, schedule: Q01DX009 (ip), vehicle: saline
  survivor count: 0 of 6
T/C endpoint: mean survival time, dose: 200.0 mg/kg/injection, schedule: Q01DX009 (ip), vehicle: saline
  survivor count: 0 of 10 and 0 of 6
T/C endpoint: median survival time, dose: 30.0 mg/kg/injection, schedule: Q01DX005 (ip), vehicle: saline
  T/C: 137 and 148 % of control
T/C endpoint: median survival time, dose: 44.0 mg/kg/injection, schedule: Q01DX005 (ip), vehicle: saline
  T/C: 132 and 144 % of control
T/C endpoint: median survival time, dose: 100.0 mg/kg/injection, schedule: Q01DX005 (ip), vehicle: saline
  T/C: 139 % of control

## Cc1nc2ccc(CCN3CCN(c4ccccc4Cl)CC3)cc2[nH]1
T/C endpoint: mean survival time, dose: 100.0 mg/kg/injection, schedule: Q04DX003 (ip), vehicle: Klucel (hydroxypropylcellulose) (HPC)
  T/C: 126 % of control
T/C endpoint: mean survival time, dose: 200.0 mg/kg/injection, schedule: Q04DX003 (ip), vehicle: Klucel (hydroxypropylcellulose) (HPC)
  survivor count: 1 of 6
T/C endpoint: mean survival time, dose: 400.0 mg/kg/injection, schedule: Q04DX003 (ip), vehicle: Klucel (hydroxypropylcellulose) (HPC)
  survivor count: 0 of 6

## CC(=O)C(C(C)=O)C(=[C-]C(F)(F)F)C(F)(F)F.CC(=O)C(C(C)=O)C(=[C-]C(F)(F)F)C(F)(F)F.[Pd+2]
T/C endpoint: mean survival time, dose: 25.0 mg/kg/injection, schedule: Q04DX003 (ip), vehicle: distilled water + Tween-80
  survivor count: 2 of 6
T/C endpoint: mean survival time, dose: 50.0 mg/kg/injection, schedule: Q04DX003 (ip), vehicle: distilled water + Tween-80
  survivor count: 0 of 6
T/C endpoint: mean survival time, dose: 100.0 mg/kg/injection, schedule: Q04DX003 (ip), vehicle: distilled water + Tween-80
  survivor count: 0 of 6
T/C endpoint: mean survival time, dose: 200.0 mg/kg/injection, schedule: Q04DX003 (ip), vehicle: distilled water + Tween-80
  survivor count: 0 of 6

## CN(C)CC1CCCCC1OC(=O)c1ccccc1 (centres undefined)
T/C endpoint: mean survival time, dose: 200.0 mg/kg/injection, schedule: Q04DX003 (ip), vehicle: water
  survivor count: 0 of 3
T/C endpoint: mean survival time, dose: 400.0 mg/kg/injection, schedule: Q04DX003 (ip), vehicle: water
  survivor count: 0 of 3

## CN(C)CCC(=O)/C=C\c1ccccc1
[3]
  survivor count: 0 of 6
[5]
  survivor count: 0 of 6
